# From the supplement of paper PMC12067093, “Discovery and optimisation of a covalent ligand for TRIM25 and its application to targeted protein ubiquitination” (Chemical Science, 2025)
# The chains behind the UniProt entries cited, without tags or fusion partners. Where a name states a change or a piece, a line headed by the entry shows the natural chain unless it says otherwise.
# UniProt Q86W42: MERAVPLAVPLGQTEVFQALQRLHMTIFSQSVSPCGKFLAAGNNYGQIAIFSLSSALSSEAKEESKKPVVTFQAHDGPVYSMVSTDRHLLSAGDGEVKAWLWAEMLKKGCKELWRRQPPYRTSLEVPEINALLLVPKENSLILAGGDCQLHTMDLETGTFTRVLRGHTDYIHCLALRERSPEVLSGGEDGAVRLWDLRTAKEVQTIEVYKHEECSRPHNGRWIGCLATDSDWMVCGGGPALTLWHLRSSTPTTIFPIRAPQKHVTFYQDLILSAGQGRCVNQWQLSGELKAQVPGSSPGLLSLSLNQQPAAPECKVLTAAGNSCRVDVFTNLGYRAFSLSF
# UniProt Q96N21: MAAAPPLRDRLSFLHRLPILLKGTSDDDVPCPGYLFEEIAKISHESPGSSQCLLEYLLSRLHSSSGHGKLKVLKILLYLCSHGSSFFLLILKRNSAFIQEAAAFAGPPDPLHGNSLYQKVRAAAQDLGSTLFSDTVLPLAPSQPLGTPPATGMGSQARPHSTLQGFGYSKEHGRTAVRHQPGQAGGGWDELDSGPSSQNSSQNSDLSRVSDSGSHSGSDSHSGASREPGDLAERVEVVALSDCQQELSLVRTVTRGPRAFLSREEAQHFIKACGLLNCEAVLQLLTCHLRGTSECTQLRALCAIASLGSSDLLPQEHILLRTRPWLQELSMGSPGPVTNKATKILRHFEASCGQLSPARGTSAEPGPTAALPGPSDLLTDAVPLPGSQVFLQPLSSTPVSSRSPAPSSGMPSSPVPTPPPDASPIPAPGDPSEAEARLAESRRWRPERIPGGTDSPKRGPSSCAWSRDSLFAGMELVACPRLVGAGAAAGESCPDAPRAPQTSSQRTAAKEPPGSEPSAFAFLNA
# UniProt Q9UGI8: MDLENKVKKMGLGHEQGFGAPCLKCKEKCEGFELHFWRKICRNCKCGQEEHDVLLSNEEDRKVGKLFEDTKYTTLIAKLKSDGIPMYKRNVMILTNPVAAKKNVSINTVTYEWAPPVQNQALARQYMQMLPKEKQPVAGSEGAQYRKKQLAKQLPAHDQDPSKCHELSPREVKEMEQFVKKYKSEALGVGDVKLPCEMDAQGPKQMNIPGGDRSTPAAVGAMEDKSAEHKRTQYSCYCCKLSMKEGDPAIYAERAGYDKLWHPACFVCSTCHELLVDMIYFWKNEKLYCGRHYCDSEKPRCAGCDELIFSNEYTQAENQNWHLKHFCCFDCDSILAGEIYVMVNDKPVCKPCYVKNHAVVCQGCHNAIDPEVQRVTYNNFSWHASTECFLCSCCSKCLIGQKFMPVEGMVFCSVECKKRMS
# UniProt Q13769: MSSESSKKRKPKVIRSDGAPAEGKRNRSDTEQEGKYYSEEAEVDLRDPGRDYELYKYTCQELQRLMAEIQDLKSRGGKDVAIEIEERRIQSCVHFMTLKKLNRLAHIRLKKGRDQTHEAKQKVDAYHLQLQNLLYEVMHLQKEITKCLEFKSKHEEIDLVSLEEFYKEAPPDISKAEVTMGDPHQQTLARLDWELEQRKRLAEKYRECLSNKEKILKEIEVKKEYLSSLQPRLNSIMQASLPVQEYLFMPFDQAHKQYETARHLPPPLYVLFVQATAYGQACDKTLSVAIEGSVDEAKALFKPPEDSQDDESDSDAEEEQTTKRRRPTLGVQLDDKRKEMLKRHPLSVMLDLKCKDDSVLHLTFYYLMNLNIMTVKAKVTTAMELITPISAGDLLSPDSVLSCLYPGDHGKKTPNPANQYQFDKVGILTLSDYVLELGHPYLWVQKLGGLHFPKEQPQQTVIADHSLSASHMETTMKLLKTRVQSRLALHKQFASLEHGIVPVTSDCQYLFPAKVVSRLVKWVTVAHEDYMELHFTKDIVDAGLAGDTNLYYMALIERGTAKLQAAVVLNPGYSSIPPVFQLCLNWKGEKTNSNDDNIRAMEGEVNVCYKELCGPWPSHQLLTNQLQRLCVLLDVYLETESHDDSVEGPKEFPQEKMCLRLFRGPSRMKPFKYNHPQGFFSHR
# UniProt Q6YHU6: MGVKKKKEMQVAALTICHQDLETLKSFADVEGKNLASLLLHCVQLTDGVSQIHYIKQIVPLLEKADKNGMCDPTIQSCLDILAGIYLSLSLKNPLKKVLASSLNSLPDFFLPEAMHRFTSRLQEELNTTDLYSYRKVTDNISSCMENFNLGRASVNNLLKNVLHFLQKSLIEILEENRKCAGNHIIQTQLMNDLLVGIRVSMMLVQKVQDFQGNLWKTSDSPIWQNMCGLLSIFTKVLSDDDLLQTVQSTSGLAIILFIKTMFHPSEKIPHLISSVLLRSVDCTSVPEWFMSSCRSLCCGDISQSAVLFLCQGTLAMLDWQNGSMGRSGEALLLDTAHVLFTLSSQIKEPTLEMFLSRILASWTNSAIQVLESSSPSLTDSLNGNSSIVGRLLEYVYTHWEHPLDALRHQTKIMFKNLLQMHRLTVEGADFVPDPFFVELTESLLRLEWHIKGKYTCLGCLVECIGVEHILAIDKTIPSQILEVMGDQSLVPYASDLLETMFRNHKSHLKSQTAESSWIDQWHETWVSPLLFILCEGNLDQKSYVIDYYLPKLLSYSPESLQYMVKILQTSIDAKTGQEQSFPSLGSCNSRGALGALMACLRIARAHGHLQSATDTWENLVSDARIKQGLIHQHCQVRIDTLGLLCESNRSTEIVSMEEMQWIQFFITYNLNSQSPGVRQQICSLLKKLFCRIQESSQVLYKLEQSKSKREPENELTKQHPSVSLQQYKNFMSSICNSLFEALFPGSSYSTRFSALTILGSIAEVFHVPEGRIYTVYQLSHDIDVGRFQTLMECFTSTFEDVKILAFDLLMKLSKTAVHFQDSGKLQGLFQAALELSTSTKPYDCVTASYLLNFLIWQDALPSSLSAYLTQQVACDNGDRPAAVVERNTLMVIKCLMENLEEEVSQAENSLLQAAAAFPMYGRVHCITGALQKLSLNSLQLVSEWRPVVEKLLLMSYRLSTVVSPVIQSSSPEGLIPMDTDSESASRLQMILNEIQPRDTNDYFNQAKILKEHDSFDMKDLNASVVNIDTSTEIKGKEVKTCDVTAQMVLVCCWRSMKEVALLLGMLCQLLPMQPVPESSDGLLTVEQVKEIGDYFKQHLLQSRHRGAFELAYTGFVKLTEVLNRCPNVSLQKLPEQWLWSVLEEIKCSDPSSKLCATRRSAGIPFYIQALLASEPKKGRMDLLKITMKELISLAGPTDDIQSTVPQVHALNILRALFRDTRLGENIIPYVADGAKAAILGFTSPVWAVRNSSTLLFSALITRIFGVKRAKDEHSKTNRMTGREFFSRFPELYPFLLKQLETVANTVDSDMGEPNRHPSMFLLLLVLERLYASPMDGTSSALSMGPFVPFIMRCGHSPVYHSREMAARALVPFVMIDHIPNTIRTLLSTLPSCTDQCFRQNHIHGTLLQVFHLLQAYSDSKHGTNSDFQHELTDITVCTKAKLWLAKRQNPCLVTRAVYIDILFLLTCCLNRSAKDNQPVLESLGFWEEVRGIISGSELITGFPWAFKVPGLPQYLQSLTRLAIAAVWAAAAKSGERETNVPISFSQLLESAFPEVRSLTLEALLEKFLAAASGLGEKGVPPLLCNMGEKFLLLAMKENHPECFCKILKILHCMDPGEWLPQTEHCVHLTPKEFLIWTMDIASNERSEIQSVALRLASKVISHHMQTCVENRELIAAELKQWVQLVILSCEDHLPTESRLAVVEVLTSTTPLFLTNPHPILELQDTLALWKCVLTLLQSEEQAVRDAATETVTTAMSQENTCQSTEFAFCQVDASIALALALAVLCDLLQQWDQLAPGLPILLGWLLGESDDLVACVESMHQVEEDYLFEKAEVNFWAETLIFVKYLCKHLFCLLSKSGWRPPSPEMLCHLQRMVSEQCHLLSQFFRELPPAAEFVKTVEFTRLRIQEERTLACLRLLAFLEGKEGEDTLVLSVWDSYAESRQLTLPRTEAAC
# UniProt P62072: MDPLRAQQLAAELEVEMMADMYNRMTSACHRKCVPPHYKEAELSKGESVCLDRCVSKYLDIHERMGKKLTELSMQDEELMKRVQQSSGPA
# UniProt Q8NHU6: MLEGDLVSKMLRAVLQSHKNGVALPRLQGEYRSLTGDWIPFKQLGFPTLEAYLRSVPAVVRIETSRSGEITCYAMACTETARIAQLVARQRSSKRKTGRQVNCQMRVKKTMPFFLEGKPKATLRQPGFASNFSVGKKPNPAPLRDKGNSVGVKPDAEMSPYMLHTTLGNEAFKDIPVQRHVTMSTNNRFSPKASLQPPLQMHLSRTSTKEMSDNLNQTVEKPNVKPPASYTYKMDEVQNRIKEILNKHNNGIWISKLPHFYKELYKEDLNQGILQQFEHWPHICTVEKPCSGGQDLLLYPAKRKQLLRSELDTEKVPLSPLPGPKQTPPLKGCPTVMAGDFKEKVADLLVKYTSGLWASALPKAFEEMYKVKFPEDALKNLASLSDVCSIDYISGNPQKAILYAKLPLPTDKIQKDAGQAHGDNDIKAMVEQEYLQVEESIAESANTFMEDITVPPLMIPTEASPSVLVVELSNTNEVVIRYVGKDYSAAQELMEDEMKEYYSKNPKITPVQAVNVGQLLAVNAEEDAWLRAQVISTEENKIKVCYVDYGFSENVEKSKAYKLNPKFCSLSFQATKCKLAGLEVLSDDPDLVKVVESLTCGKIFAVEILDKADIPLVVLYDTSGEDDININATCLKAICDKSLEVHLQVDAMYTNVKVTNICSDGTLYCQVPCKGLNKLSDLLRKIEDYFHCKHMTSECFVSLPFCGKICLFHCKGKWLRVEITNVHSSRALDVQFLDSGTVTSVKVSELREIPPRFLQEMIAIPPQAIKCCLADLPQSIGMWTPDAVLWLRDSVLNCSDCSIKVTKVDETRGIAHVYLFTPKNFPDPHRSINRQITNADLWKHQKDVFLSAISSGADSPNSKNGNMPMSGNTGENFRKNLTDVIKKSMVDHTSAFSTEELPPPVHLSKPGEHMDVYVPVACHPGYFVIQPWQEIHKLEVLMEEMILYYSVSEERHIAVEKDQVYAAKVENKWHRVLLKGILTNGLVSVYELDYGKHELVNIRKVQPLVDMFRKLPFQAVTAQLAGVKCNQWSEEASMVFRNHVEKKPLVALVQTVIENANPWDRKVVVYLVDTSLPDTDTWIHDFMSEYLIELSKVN
# UniProt Q9NWX6: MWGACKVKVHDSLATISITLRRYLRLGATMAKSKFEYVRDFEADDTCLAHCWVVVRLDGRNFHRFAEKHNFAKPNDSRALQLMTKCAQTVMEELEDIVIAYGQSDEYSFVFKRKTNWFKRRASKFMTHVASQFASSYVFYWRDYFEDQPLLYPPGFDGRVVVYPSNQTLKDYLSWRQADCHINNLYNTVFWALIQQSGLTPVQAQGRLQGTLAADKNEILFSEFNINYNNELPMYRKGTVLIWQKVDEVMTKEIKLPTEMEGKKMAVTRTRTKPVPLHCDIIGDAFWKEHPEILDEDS
# UniProt Q8IWB9: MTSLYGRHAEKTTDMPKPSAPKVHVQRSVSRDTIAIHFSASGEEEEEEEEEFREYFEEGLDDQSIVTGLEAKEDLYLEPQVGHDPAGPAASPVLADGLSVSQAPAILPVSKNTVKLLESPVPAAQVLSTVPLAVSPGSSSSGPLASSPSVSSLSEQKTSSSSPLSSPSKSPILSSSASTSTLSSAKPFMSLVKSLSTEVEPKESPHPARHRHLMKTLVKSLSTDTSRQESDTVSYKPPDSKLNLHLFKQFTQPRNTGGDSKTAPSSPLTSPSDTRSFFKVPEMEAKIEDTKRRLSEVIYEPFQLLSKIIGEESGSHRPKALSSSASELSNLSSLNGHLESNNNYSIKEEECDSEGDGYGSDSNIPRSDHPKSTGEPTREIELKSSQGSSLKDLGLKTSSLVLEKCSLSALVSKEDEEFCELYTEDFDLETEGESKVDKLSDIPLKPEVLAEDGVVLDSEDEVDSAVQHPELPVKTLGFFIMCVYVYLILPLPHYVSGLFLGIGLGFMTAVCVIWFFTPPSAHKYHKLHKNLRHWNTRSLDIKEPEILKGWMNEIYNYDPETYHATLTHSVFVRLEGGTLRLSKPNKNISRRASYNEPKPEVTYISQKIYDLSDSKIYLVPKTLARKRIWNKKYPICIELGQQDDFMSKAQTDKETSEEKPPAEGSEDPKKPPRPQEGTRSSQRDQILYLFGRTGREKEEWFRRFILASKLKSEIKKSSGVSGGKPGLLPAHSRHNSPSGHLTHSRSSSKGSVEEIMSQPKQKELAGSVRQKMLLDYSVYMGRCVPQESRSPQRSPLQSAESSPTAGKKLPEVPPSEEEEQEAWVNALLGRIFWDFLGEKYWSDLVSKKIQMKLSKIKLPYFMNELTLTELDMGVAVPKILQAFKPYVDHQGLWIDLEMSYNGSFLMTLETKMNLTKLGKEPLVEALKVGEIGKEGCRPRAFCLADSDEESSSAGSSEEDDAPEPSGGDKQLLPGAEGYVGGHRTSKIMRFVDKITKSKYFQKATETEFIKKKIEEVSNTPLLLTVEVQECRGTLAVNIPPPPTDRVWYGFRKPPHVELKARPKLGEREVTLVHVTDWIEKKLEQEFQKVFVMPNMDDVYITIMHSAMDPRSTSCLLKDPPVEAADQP
# The other results are listed elsewhere or left out.
# Compound: Cc1cc(ccc1-c1ccccc1)C(=O)N1CCCN(CC1)C(=O)CCl [compound 10]
# Assay: probe-labelled cysteine peptide fold change vs DMSO (competition) (log2 fold change); higher = less target engagement (more negative = stronger competition)
# Conditions: THP-1, incubation time: 4 h
# 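Note: competitive profiling in live THP-1 cells: cysteine peptides tagged with an iodoacetamide desthiobiotin (IA-DTB) probe, intensity after compound treatment relative to DMSO-treated cells.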
Target,probe-labelled cysteine peptide fold change (10 µM),probe-labelled cysteine peptide fold change (50 µM)
TCP1_P17987_296_ILATGANVILTTGGIDDMCLK (UniProt P17987),0.17,0.145
THEMIS2_Q5TEJ8_395_LEVLGPGQAHGAQGSDVDVLVCQR (UniProt Q5TEJ8),-0.303,-0.0555
TIGAR_Q9NQ88_114_EECPVFTPPGGETLDQVK (UniProt Q9NQ88),-0.225,-1.35
THBS1_P07996_413_CEGSSVQTR (UniProt P07996),-0.33,-0.273
THOC6_Q86W42_279_CVNQWQLSGELK (UniProt Q86W42),0.114,0.112
TLN1_Q9Y490_1939_AGALQCSPSDAYTK (UniProt Q9Y490),-0.263,-0.0687
TDP2_O95551_273_CGGLPNNIVDVWEFLGK (UniProt O95551),-0.0151,0.216
TIMM44_O43615_343_DWCYEATYSQLAHPIQQAK (UniProt O43615),0.208,0.259
TEPSIN_Q96N21_273_ACGLLNCEAVLQLLTCHLR (UniProt Q96N21),0.821,2.62
THOC3_Q96J01_326_RPLLAFACDDK (UniProt Q96J01),-0.129,-0.0587
TLN1_Q9Y490_1506+1509_HTSALCNSCR (UniProt Q9Y490),0.273,-0.0528
THOP1_P52888_246_VEEAFNCR (UniProt P52888),-0.163,0.0946
TGFBRAP1_Q8WUH2_33_VNIECVECCGR (UniProt Q8WUH2),-0.175,-0.00571
THBS1_P07996_599_EVPDACFNHNGEHR (UniProt P07996),-0.538,-0.399
THBS1_P07996_754_IPDDRDNCPFHYNPAQYDYDRDDVGDR (UniProt P07996),-0.513,0.243
THUMPD1_Q9NXG2_31_RCDAGGPR (UniProt Q9NXG2),-0.658,-0.594
TES_Q9UGI8_364_NHAVVCQGCHNAIDPEVQR (UniProt Q9UGI8),0.201,-0.124
TEPSIN_Q96N21_479_DSLFAGMELVACPR (UniProt Q96N21),-0.077,-0.713
THOC5_Q13769_59_YTCQELQR (UniProt Q13769),0.148,0.198
THADA_Q6YHU6_180_CAGNHIIQTQLMNDLLVGIR (UniProt Q6YHU6),-0.207,0.0834
TGFB1I1_O43294_431_FHPDHFTCTFCLRPLTK (UniProt O43294),0.18,-0.15
TDP1_Q9NUW8_48_YTCSEAQK (UniProt Q9NUW8),-0.337,-0.359

Target,probe-labelled cysteine peptide fold change (10 µM),probe-labelled cysteine peptide fold change (50 µM)
TERF1_P54274_118_NSAEAIIHGLSSLTACQLR (UniProt P54274),-0.173,-0.297
THOP1_P52888_253_EENCAILK (UniProt P52888),0.642,0.0323
TIMELESS_Q9UNS1_1126_VPGEQGSDEEHCK (UniProt Q9UNS1),-0.446,-0.828
TLE3_Q04726_528_SPISQLDCLNR (UniProt Q04726),-0.0216,0.0474
THADA_Q6YHU6_464_YTCLGCLVECIGVEHILAIDK (UniProt Q6YHU6),0.454,0.464
TGFBR1_P36897_101_TGSVTTTYCCNQDHCNK (UniProt P36897),-0.187,-0.398
TLN1_Q9Y490_1661_APGQLECETAIAALNSCLR (UniProt Q9Y490),0.132,0.138
TIMM10_P62072_29_MTSACHR (UniProt P62072),0.144,0.268
THOC6_Q86W42_148_ENSLILAGGDCQLHTMDLETGTFTR (UniProt Q86W42),0.104,0.156
TDRD7_Q8NHU6_77_SGEITCYAMACTETAR (UniProt Q8NHU6),-0.0811,-1.42
THG1L_Q9NWX6_51_DFEADDTCLAHCWVVVR (UniProt Q9NWX6),0.048,0.143
THOP1_P52888_682_GLQVGGCEPEPQVC (UniProt P52888),-0.241,-0.0328
TELO2_Q9Y4R8_813_SWLADVAEKDPDEDCR (UniProt Q9Y4R8),0.0272,0.397
TKT_P29401_417_MAAISESNINLCGSHCGVSIGEDGPSQMALEDLAMFR (UniProt P29401),0.31,-0.138
THUMPD1_Q9NXG2_169_MLPISGTCK (UniProt Q9NXG2),-0.117,0.00242
THOC5_Q13769_507_QFASLEHGIVPVTSDCQYLFPAK (UniProt Q13769),-0.142,-0.011
TLN1_Q9Y490_2161_ALEATTEHIRQELAVFCSPEPPAK (UniProt Q9Y490),-0.0388,0.0606
TIPRL_O75663_75_CVNNYQGMLK (UniProt O75663),-0.0238,0.0281
TEX2_Q8IWB9_1030_KIEEVSNTPLLLTVEVQECR (UniProt Q8IWB9),-0.04,0.335
TEP1_Q99973_692_TVLVYLTDANADRLCPK (UniProt Q99973),-0.328,-0.442
TDG_Q13569_162_CLFMSGLSEVQLNHMDDHTLPGK (UniProt Q13569),-0.0395,-0.495
TDRD7_Q8NHU6_699+706_HMTSECFVSLPFCGK (UniProt Q8NHU6),-0.116,-0.109

# Quoted from the entries so far for reference:
Target,probe-labelled cysteine peptide fold change (10 µM),probe-labelled cysteine peptide fold change (50 µM)
TGFBR1_P36897_101_TGSVTTTYCCNQDHCNK (UniProt P36897),-0.187,-0.398
TLN1_Q9Y490_1661_APGQLECETAIAALNSCLR (UniProt Q9Y490),0.132,0.138
TIMM10_P62072_29_MTSACHR (UniProt P62072),0.144,0.268
THOC6_Q86W42_148_ENSLILAGGDCQLHTMDLETGTFTR (UniProt Q86W42),0.104,0.156
TDRD7_Q8NHU6_77_SGEITCYAMACTETAR (UniProt Q8NHU6),-0.0811,-1.42
THG1L_Q9NWX6_51_DFEADDTCLAHCWVVVR (UniProt Q9NWX6),0.048,0.143
THOP1_P52888_682_GLQVGGCEPEPQVC (UniProt P52888),-0.241,-0.0328
TELO2_Q9Y4R8_813_SWLADVAEKDPDEDCR (UniProt Q9Y4R8),0.0272,0.397
TKT_P29401_417_MAAISESNINLCGSHCGVSIGEDGPSQMALEDLAMFR (UniProt P29401),0.31,-0.138
THUMPD1_Q9NXG2_169_MLPISGTCK (UniProt Q9NXG2),-0.117,0.00242
THOC5_Q13769_507_QFASLEHGIVPVTSDCQYLFPAK (UniProt Q13769),-0.142,-0.011
TLN1_Q9Y490_2161_ALEATTEHIRQELAVFCSPEPPAK (UniProt Q9Y490),-0.0388,0.0606
TIPRL_O75663_75_CVNNYQGMLK (UniProt O75663),-0.0238,0.0281
TEX2_Q8IWB9_1030_KIEEVSNTPLLLTVEVQECR (UniProt Q8IWB9),-0.04,0.335
TEP1_Q99973_692_TVLVYLTDANADRLCPK (UniProt Q99973),-0.328,-0.442
TDG_Q13569_162_CLFMSGLSEVQLNHMDDHTLPGK (UniProt Q13569),-0.0395,-0.495
TDRD7_Q8NHU6_699+706_HMTSECFVSLPFCGK (UniProt Q8NHU6),-0.116,-0.109

# (next part)

Target,probe-labelled cysteine peptide fold change (10 µM),probe-labelled cysteine peptide fold change (50 µM)
TKT_P29401_362+376_EHPDRFIECYIAEQNMVSIAVGCATR (UniProt P29401),-0.0131,0.408
THAP12_O43422_68_HFETSMICR (UniProt O43422),0.0308,-0.127
TECPR2_O15040_282_LESPNSGSCSLPER (UniProt O15040),-0.157,-0.107
TES_Q9UGI8_361+364_NHAVVCQGCHNAIDPEVQR (UniProt Q9UGI8),-0.0998,-0.5
TEP1_Q99973_1468_SWEEAVAAGNSGDPYPMGPFACLVQSLR (UniProt Q99973),-0.31,-0.27
THBD_P07204_267_CQCPAGAALQADGR (UniProt P07204),0.107,0.323
TGFB1I1_O43294_231_GLCGSCNKPIAGQVVTALGR (UniProt O43294),0.054,-0.154
THG1L_Q9NWX6_279_TKPVPLHCDIIGDAFWK (UniProt Q9NWX6),-0.236,-0.00933
THYN1_Q9P016_89_QTTCWDGVR (UniProt Q9P016),-0.0527,-0.0937
TIMM17A_Q99595_17_IVDDCGGAFTMGTIGGGIFQAIK (UniProt Q99595),-0.147,-0.12
THOC3_Q96J01_65_VHSVAWSCDGRR (UniProt Q96J01),0.00382,-0.116
TLK2_Q86UE8_737_IDVQQLACDPYLLPHIR (UniProt Q86UE8),0.018,0.143
THOP1_P52888_231_CHVPETR (UniProt P52888),-0.0874,-0.0527
TICRR_Q7Z2Z1_160_EAEAALGGLVNAVFLLAPCPHSQR (UniProt Q7Z2Z1),-0.194,-0.894
TIMM8A_O60220_62_AEACFVNCVER (UniProt O60220),-0.122,0.159
TGFBR1_P36897_71_VIHNSMCIAEIDLIPR (UniProt P36897),0.188,0.0551
TIMM17B_O60830_17_IVDDCGGAFTMGVIGGGVFQAIK (UniProt O60830),-0.00359,0.278
TLE4_Q04727_32_FTISESCDR (UniProt Q04727),-0.108,0.219
TLN1_Q9Y490_1671_APGQLECETAIAALNSCLR (UniProt Q9Y490),0.0454,-0.0484
TKT_P29401_386_TVPFCSTFAAFFTR (UniProt P29401),-0.104,0.203
TIAL1_Q01085_51_MITEHTSNDPYCFVEFYEHR (UniProt Q01085),-0.0244,-0.0448
